Non-standard residues stand in square brackets, D forms with d. No end group written: not given here.
Test system: ApoE−/− mice infused with Ang II
Test: Systolic blood pressure (CODA tail-cuff) in Ang II-infused ApoE−/− mice
Assay type: in vivo
Settings: 3 mg/kg/day with Ang II 1000 ng/kg/min by osmotic minipump, end of treatment (28 days)

| Substance | systolic blood pressure |
| --- | --- |
| F[dR]FK-NH2 [SS-20] | not significantly altered |
| D-Arg-2′,6′-dimethyltyrosine-Lys-Phe-NH2 [SS-31] | not significantly altered |
